These are yes or no findings as the source states them, for the method shown. Binding seen in cells or lysates may run through a third protein. Some binding calls cover weakened binding; strength is not graded here. Each block holds one substance with its values, some of them ahead of it.
Experiments:
GST-USP7 (human) = GST-USP7 (human) (UniProt Q93009); assay: pull-down; bacterially expressed GST fusion on glutathione beads incubated with in vitro translated SAMHD1 or USP7; only the target purified
GST-SAMHD1 (human) = GST-SAMHD1 (human) (UniProt Q9Y3Z3); assay: as above
[1] = molecular target: HD domain of SAMHD1 (human) (UniProt Q9Y3Z3); assay: as above
[2] = molecular target: USP7 (human (endogenous in HCT116)) (UniProt Q93009); assay: co-IP; cell lysates (HCT116; also Hela, HEK293, A549, TPC-1) in IP lysis buffer (25 mM Tris pH 7.6, 150 mM NaCl, 1% Nonidet P-40, 1 mM EDTA), antibody and protein A/G-Sepharose overnight at 4 °C, IgG control; also cells with or without cisplatin, doxorubicin or H2O2
[3] = molecular target: SAMHD1 (human (endogenous in HCT116)) (UniProt Q9Y3Z3); assay: as above

Chains of the proteins cited; added tags and fusions are not shown. Lines headed by an entry give the natural chain unless they say otherwise; changes in a name come on top. Residues count along the entry.
UniProt Q93009: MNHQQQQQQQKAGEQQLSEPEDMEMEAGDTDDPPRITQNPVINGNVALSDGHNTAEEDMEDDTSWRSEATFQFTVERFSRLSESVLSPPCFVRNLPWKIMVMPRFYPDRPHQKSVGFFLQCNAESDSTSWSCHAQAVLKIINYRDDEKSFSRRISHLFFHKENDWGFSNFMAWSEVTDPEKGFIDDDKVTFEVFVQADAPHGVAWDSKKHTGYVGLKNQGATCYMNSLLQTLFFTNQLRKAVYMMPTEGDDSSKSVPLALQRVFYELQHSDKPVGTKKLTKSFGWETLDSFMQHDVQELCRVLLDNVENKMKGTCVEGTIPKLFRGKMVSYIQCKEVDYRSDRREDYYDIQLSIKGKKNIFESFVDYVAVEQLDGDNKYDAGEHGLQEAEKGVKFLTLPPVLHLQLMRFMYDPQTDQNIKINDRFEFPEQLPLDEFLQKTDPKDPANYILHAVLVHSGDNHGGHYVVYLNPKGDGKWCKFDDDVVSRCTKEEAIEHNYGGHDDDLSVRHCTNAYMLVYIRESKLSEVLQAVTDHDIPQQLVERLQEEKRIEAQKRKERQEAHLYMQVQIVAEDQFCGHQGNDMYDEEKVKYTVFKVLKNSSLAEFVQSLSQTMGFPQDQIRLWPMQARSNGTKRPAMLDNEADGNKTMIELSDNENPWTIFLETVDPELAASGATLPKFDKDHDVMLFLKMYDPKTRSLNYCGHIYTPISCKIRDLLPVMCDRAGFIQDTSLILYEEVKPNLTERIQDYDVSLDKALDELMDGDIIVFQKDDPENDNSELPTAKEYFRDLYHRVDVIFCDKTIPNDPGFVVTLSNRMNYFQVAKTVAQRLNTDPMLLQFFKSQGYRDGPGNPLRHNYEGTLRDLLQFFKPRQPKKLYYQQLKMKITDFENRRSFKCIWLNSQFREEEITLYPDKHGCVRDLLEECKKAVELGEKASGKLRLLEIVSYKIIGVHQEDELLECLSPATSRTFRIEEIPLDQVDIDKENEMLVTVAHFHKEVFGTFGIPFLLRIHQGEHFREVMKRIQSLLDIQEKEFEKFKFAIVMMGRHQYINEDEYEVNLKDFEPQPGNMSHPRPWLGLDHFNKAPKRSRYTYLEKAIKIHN
UniProt Q9Y3Z3: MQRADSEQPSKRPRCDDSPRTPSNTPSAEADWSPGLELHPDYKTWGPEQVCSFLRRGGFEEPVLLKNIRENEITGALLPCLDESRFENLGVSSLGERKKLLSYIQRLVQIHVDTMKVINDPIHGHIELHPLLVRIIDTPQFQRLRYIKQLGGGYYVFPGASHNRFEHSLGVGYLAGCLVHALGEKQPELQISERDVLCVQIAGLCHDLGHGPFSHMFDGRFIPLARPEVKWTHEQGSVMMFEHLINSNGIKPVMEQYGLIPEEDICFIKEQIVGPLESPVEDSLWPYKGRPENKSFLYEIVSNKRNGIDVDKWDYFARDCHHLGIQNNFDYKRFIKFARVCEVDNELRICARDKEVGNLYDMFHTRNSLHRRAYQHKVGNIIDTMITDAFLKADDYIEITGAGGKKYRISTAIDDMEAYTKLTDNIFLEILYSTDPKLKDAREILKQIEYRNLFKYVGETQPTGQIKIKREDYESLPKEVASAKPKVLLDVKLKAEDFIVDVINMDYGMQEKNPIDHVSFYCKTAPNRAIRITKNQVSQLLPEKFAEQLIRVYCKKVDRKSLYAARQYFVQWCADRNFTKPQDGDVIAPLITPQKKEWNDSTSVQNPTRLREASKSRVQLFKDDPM
HD domain of SAMHD1: residues 115-583 of Q9Y3Z3

binding (GST-USP7 (human)): binds
Substance: Recombinant human SAMHD1 (from UniProt Q9Y3Z3 1-626)

binding (GST-SAMHD1 (human)): binds
binding [1]: binds
Substance: Recombinant human USP7 (from UniProt Q93009 1-1102) (enzyme)

binding [2]: binds
Substance: SAMHD1 (from UniProt Q9Y3Z3 1-626)

binding [3]: binds
Substance: USP7 (from UniProt Q93009 1-1102) (enzyme)
